Data as given in PubChem BioAssay AID1224830 (NIAID, 2016)

- Aim: 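Host factors that control LPS-induced TNF expression in human macrophages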 (primary screen)
- Cells: human THP-1 monocytic leukaemia cells, TNF dual-luciferase reporter clone, PMA-differentiated to macrophage-like cells
- Reagent: siRNA pool against human genes, 50 nM
- Time to read-out: LPS for 4 h, given about 3 days after siRNA transfection
- Challenge: bacterial LPS (TLR4 ligand), 10 ng/ml
- Read-out: 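Ratio of firefly to renilla light, scaled to the plate median and expressed as a robust z-score per replicate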
- Scale: TNF reporter robust z-score: higher = stronger TNF reporter response to LPS
- Hit rule: 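Each well counts as active if its z-score is over 2.8 or under -1.5; controls are left without a call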
This is a random part of about 18,000 deposited reagents. About 2,900 of them (16%) count as active. 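Calls are made per well; low scores hint the gene aids the LPS response, high scores that it dampens it.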 Repeated entries: four replicate wells of each siRNA pool.

UIMC1 (ubiquitin interaction motif containing 1) → TNF reporter robust z-score: 0.53; activity call: inactive
UIMC1 (ubiquitin interaction motif containing 1) → TNF reporter robust z-score: -0.17; activity call: inactive
UIMC1 (ubiquitin interaction motif containing 1) → TNF reporter robust z-score: -1.18; activity call: inactive
UIMC1 (ubiquitin interaction motif containing 1) → TNF reporter robust z-score: -0.48; activity call: inactive
SACK1E (scaffolding CK1 anchoring protein E) → TNF reporter robust z-score: -0.87; activity call: inactive
SACK1E (scaffolding CK1 anchoring protein E) → TNF reporter robust z-score: -0.73; activity call: inactive
SACK1E (scaffolding CK1 anchoring protein E) → TNF reporter robust z-score: -0.44; activity call: inactive
SACK1E (scaffolding CK1 anchoring protein E) → TNF reporter robust z-score: 0.03; activity call: inactive
DHRS12 (dehydrogenase/reductase 12) → TNF reporter robust z-score: 0.56; activity call: inactive
DHRS12 (dehydrogenase/reductase 12) → TNF reporter robust z-score: -0.27; activity call: inactive
DHRS12 (dehydrogenase/reductase 12) → TNF reporter robust z-score: -0.58; activity call: inactive
DHRS12 (dehydrogenase/reductase 12) → TNF reporter robust z-score: 0.61; activity call: inactive

Next part (2 carried over from the part before).
DHRS12 (dehydrogenase/reductase 12) → TNF reporter robust z-score: -0.58; activity call: inactive
DHRS12 (dehydrogenase/reductase 12) → TNF reporter robust z-score: 0.61; activity call: inactive
PCDHGA8 (protocadherin gamma subfamily A, 8) → TNF reporter robust z-score: 0.35; activity call: inactive
PCDHGA8 (protocadherin gamma subfamily A, 8) → TNF reporter robust z-score: 0.15; activity call: inactive
PCDHGA8 (protocadherin gamma subfamily A, 8) → TNF reporter robust z-score: 2.07; activity call: inactive
DELEC1 (deleted in esophageal cancer 1) → TNF reporter robust z-score: 0.63; activity call: inactive
DELEC1 (deleted in esophageal cancer 1) → TNF reporter robust z-score: 0; activity call: inactive
DELEC1 (deleted in esophageal cancer 1) → TNF reporter robust z-score: 0.88; activity call: inactive
DELEC1 (deleted in esophageal cancer 1) → TNF reporter robust z-score: 0.36; activity call: inactive
